Patent publication US20030113828A1, “Compositions and methods for modulating Syk function” (priority 2001, published 2003)
These are yes or no findings as the source states them, for the method shown. Some binding calls cover weakened binding; strength is not graded here.

Amino acid sequences for entries named in this document (tags omitted). Residues count along the entry.
UniProt P05106, residues 742-788: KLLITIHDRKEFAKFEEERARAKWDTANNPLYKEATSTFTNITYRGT
UniProt P43403: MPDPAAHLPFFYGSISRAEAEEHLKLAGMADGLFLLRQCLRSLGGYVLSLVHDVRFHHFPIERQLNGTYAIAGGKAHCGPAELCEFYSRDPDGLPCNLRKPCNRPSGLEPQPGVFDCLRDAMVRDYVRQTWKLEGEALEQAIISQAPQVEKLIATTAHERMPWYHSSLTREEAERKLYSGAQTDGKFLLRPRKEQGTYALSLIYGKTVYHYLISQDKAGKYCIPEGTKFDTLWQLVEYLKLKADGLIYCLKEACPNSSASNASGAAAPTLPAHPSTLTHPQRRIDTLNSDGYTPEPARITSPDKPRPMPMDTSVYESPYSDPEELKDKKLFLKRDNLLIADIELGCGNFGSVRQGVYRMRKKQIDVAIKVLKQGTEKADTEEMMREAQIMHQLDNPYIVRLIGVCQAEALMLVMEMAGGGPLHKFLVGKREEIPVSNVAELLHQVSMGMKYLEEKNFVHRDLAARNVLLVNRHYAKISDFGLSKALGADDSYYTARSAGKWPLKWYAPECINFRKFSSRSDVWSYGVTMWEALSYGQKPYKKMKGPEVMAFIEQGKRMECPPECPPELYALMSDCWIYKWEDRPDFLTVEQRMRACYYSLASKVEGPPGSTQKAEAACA

Target: integrin β3 cytoplasmic tail model protein (UniProt P05106)
Assay: affinity chromatography of cell lysates on tail model protein beads, immunoblot

Q: “Zap-70 (from UniProt P43403 1-619) (enzyme)” was tested. Which binding did it give?
A: Its binding is “binds”.
